Source: patent publication US12630630 (SHANGHAI HENLIUS BIOTECH, dated 2026)
Where a chain is given by its changes, count along the chain named. These are yes or no findings as the source states them, for the method shown. Some results given as binding are weak or reduced against the parent protein; the word gives no strength. Blank lines part the entries; values can stand above or below the binder they belong to.

Amino acid sequences for entries named in this document (tags omitted). A change or cut given only in a name is not applied to a line headed by its entry.
UniProt Q08722: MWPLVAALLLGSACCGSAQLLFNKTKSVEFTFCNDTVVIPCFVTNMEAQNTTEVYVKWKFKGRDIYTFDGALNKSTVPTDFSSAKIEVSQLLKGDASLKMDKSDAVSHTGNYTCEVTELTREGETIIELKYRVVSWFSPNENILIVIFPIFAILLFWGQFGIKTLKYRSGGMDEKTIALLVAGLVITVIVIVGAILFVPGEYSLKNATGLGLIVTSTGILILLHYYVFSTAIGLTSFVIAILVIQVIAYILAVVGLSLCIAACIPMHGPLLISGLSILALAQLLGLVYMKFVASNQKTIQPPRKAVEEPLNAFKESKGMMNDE

Key:
[1] = biological target: CD47 on human cells (Raji, Jurkat, red blood cells) (human) (UniProt Q08722); assay: flow cytometry on Raji cells
[2] = biological target: CD47 on human cells (Raji, Jurkat, red blood cells) (human) (UniProt Q08722); assay: flow cytometry on Jurkat cells
[3] = biological target: CD47 on human cells (Raji, Jurkat, red blood cells) (human) (UniProt Q08722); assay: flow cytometry on red blood cells
[4] = biological target: CD47 on human cells (Raji, Jurkat, red blood cells) (human) (UniProt Q08722); assay: flow cytometry, whole-cell binding to Jurkat cells
[5] = biological target: CD47 on human cells (Raji, Jurkat, red blood cells) (human) (UniProt Q08722); assay: flow cytometry, whole-cell binding to red blood cells
[6] = biological target: CD47 on human cells (Raji, Jurkat, red blood cells) (human) (UniProt Q08722); assay: flow cytometry, whole-cell binding to Raji cells, FITC secondary antibody
[7] = biological target: CD47 on human cells (Raji, Jurkat, red blood cells) (human) (UniProt Q08722); assay: flow cytometry competition: antibody and a fixed concentration of biotin-human SIRPα-Fc co-incubated with CD47-expressing cells (Jurkat in Example 2; the legend also names Raji), streptavidin-PE

B1: Clone M1 (antibody, human IgG4 S228P, lambda, V domains shown)
VH: QVQLQQWGAGLLKPSETLSLTCAVYGGSFSGYYWSWIRQPPGKGLEWIGEINHSGSTNYNPSLKSRVTISVDTSKNQFSLRLSSVTAADTAMYYCARFTGRPYYGMDVWGQGTTVTVSS
VL: LSYELTQPPSVSATPGQRVTISCSGSESNIGSHKVKWYQQFAGAAPRLLIHGNDQRRSGVPDRFSGSKSGTSASLAISGLQSEDEADYYCAAWDDSLNGRVFGGGTKLTVLG
notes: also called antibody clone M1
- binding [1]: binds
- binding [2]: binds
- binding [3]: binds
- binding [4]: binds
- binding [5]: binds
- binding [6]: binds
- binding [7]: binds

B2: Clone M1 #46 (antibody, human IgG4 S228P, lambda, V domains shown)
VH: B1 VH with T99S
VL: B1 VL with N98Y
- binding [2]: binds
- binding [3]: binds
- binding [4]: binds
- binding [5]: binds
- binding [7]: binds

B6: Clone M1 #11 (antibody, human IgG4 S228P, lambda, V domains shown)
VH: B1 VH with T99H
VL: B1 VL with S58R, N98Y
- binding [2]: binds
- binding [3]: binds
- binding [4]: binds
- binding [5]: binds
- binding [7]: binds

B7: Clone M1 #21 (antibody, human IgG4 S228P, lambda, V domains shown)
VH: B1 VH with H53Q
VL: B1 VL with R57F, N98Y
- binding [2]: binds
- binding [3]: binds
- binding [4]: binds
- binding [5]: binds
- binding [7]: binds

Now from value to binder:

- binding [2]: binds
- binding [3]: binds
- binding [4]: binds
- binding [5]: binds
- binding [7]: binds
B3: Clone M1 #33 (antibody, human IgG4 S228P, lambda, V domains shown)
VH: B1 VH with N58R, T99I
VL: B1 VL with G52D

- binding [2]: binds
- binding [3]: binds
- binding [4]: binds
- binding [5]: binds
B4: Clone M1 #25 (antibody, human IgG4 S228P, lambda, V domains shown)
VH: B1 VH with T57V
VL: B1 VL with N98A

- binding [2]: binds
- binding [3]: binds
- binding [4]: binds
- binding [5]: binds
- binding [7]: binds
B5: Clone M1 #55 (antibody, human IgG4 S228P, lambda, V domains shown)
VH: B1 VH with T99K
VL: B1 VL with S58E, N98Y
